From US7189693 come the findings set out here.

The target of this experiment is PDGF D C-terminal fragment, the subunit of the p35 dimer (from HEK 293 cells grown with fetal bovine serum) (human). The experiment in a line: SDS-PAGE of purified protein, non-reducing against reducing conditions, with N-terminal sequencing (homodimer).

These are yes or no findings as the source states them, for the method shown. Some entries that bind do so weakly or less than the wild type.

“PDGF D C-terminal fragment, the subunit of the p35 dimer (from HEK 293 cells grown with fetal bovine serum) (from UniProt Q5RA73 250-370) (ligand)”: the binding result is on record as “binds”.
